According to US5026829A, “Cyclo substituted propyleneamine oxime and its use as a brain imaging agent” (University of Cincinnati, priority 1989, dated 1991):
At least one read-out could not be matched to a standard name with certainty. At least one structure is not confirmed: it was looked up by name or label, or the drawing left a doubt.

Test: Comparative in vitro stability of 99m-Tc CB-PAO and 99m-Tc HM-PAO prepared in the same vial (HPLC)
Type: physicochemical
Description: In order to test the in vitro stability of the 99m-Tc-CB-PAO, 99m-Tc-CB-PAOand 99m-Tc-HMPAO were prepared in the same vial. The CB-PAO and HM-PAO agents were both reacted with pertechnetate in the same vial. This insures that both compositions were subjected to the same characteristics. These were then tested using HPLC. The results showing the percentage of 99m-Tc CB-PAO (labeled CB) and 99m-Tc HM-PAO labeled HM are shown in Table 1 over a period of 0 minutes to 13.4 hours.

Row | Structure (SMILES) | percentage of 99m-Tc complex (CB or HM) (23 min) | percentage of 99m-Tc complex (CB or HM) (74 min) | percentage of 99m-Tc complex (CB or HM) (3.3 h) | percentage of 99m-Tc complex (CB or HM) (12.2 h) | percentage of 99m-Tc complex (CB or HM) (13.4 h)
1 | CC1=[N+]([O-])[99Tc-2]23(=[O])[N](CC4(CCC4)C[N]2C(C)C(C)=[N+]3O)C1C (racemic) [99m-Tc CB-PAO] | 55.4% | 57.9% | 58.1% | 38.5% | 34.8%
2 | C/C(=N\O)[C@@H](C)NCC(C)(C)CN[C@H](C)/C(C)=N/O [99m-Tc HM-PAO, 4,8,-diaza-3,6,6,9-tetramethyl undecane-2,10-dione bisoxime, metal not drawn, reference compound] | 29.9% | 28.4% | 27.5% | 11.7% | 9.7%
